Measured values from the supplement of paper PMC3334620.
Whole data set: some 33,000 sequences, median “E-score (-0.5 to 0.5)” near -0.0059, cut for the highest 2% near 0.26. Some of the results follow.

Biological target: T1, Cin5 (UniProt P40917)
T1 sequence: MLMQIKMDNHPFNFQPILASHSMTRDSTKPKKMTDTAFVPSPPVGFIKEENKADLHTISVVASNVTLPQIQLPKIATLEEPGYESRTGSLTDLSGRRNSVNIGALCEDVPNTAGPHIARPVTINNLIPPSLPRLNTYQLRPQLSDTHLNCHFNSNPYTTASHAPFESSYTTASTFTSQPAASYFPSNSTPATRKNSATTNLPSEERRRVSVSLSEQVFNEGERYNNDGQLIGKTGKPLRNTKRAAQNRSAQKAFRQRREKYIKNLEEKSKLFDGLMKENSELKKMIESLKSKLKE
Assay: PBM E-score (8-mer binding enrichment) (E-score (-0.5 to 0.5)); higher = stronger / more preferred TF binding
Conditions: protein concentration: 100 nM; construct: GST-full length
Method in brief: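 Universal all-10-mer Agilent arrays, double-stranded by primer extension on fresh or once-stripped slides, were probed with about 100-200 nM GST-tagged yeast transcription factors made by PURExpress. Fluorescent anti-GST detected bound protein, and masliner normalised the scans. E-scores from the Universal PBM Analysis Suite were given to each ungapped eight-base word pooled with its reverse complement.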

| Sequence | PBM E-score |
| --- | --- |
| GAATTCTA | 0.0978 |
| GAAGTTCC | -0.13 |
| ATGTTGTC | 0.138 |
| CGAACCCC | -0.127 |
| AGGTGCGC | -0.195 |
| CCACAAGA | -0.0338 |
| CACGACAC | -0.121 |
| CCGGCGGC | -0.0806 |
| AGACACAC | -0.0299 |
| ATAGCATG | -0.102 |
| GGATAAAA | 0.157 |
| AGTGGACA | 0.0344 |
| AGTTCAGG | -0.0235 |
| CGGGATAA | 0.219 |
| CACCTCCG | -0.114 |
| CACTAGAA | -0.0106 |
| CGAATTTC | 0.158 |
| CCTTTGGC | -0.223 |
| ATCTAGCG | -0.0816 |
| GTCCGAAC | -0.176 |
| AGGGGCAC | -0.217 |
| CGCGTATA | -0.0479 |
| CGGATTAA | 0.115 |
| CCGTGGAC | -0.221 |
| CACAAACG | 0.113 |

| Sequence | PBM E-score |
| --- | --- |
| GCAACTAC | 0.0148 |
| CGAGGAGC | -0.245 |
| CACGGGCC | -0.296 |
| TAGAACAA | -0.0301 |
| CACGACTA | -0.232 |
| GCTAGCCA | -0.00387 |
| GTTACCGA | -0.119 |
| CTCTATGC | 0.0465 |
| AACAACTA | 0.0774 |
| TCCAGCGA | -0.0733 |
| CACCGTAG | -0.231 |
| ACTCCTAT | -0.0355 |
| CGGGTACA | -0.185 |
| CGCCCGCG | -0.0704 |
| CGTTGGTC | -0.0699 |
| CCTTTCGC | 0.0567 |
| CTACTCTC | -0.116 |
| GGCCTATA | -0.255 |
| CCATCGCA | -0.0392 |
| AATTTTAG | -0.034 |
| AGTGCGGC | -0.129 |
| ATACGCTC | 0.071 |
| ACCTTCAA | -0.0086 |
| ACGAGCAC | 0.0254 |
| CAAGTCGC | -0.155 |

Single entries from above.
For PBM E-score, GTCCGAAC is listed with -0.176
For PBM E-score, ACTCCTAT is listed with -0.0355
For PBM E-score, GAAGTTCC is listed with -0.13
For PBM E-score, AGTGCGGC is listed with -0.129
For PBM E-score, AGACACAC is listed with -0.0299

(listing goes on)

| Sequence | PBM E-score |
| --- | --- |
| CCATCTCA | -0.0126 |
| AGAAATTG | 0.158 |
| GTATCATA | 0.274 |
| CGGTGAAG | -0.311 |
| ACGTCAGA | 0.00243 |
| CTGGACTC | -0.129 |
| AAGCCTTC | -0.135 |
| GCCAAGCA | -0.119 |
| ATAGCCCC | -0.24 |
| CCATCAAA | 0.158 |
| CAGATCAA | -0.088 |
| CTAATACA | 0.161 |
| GCACACGC | -0.159 |
| AAATAACA | 0.171 |
| CCAGAAGC | -0.122 |
| TAATCTAA | 0.0877 |
| GATACGGC | -0.204 |
| AGTGGGAT | 0.166 |
| CCTTCCCA | 0.00213 |
| AAGACCCA | -0.196 |
| TCGTGGAA | 0.263 |
| AAGAAGCC | 0.0802 |
| CGAGATTA | 0.244 |
| ACATTACT | 0.13 |
| GAGTAATA | 0.26 |

| Sequence | PBM E-score |
| --- | --- |
| CCATTAAC | 0.131 |
| AGACTCTC | -0.155 |
| CTGTGCGC | -0.103 |
| TACCTAAA | 0.185 |
| GGGCGGAC | -0.224 |
| GTTGAAAC | 0.0445 |
| TGGCACAA | -0.096 |
| ATAACTGA | 0.175 |
| CTTCACAC | 0.0747 |
| AGGTTCAA | 0.0218 |
| ATAGTAGG | 0.114 |
| AGTTGAAA | -0.0098 |
| CGTTTTGA | 0.0112 |
| CCAGTGGA | -0.127 |
| CCGACAAG | 0.0518 |
| CCCTCTCC | -0.287 |
| ATATGTGA | 0.227 |
| CATCTGCG | 0.0286 |
| AGATGCGA | 0.0696 |
| CTCCGGGA | -0.0715 |
| CCAAGAGA | -0.0651 |
| CACGTTGA | -0.095 |
| GGTTCGGA | -0.119 |
| ATTTAACC | 0.108 |
| GTTTAGCA | -0.0365 |

| Sequence | PBM E-score |
| --- | --- |
| AGCAAACG | -0.0626 |
| ATGAGCGA | 0.082 |
| TCTACAGA | -0.124 |
| ACCTCGGA | 0.038 |
| AAGCGAGA | 0.102 |
| GCGGCACA | 0.0275 |
| GACCCGGC | -0.244 |
| CAAATGAC | -0.0347 |
| GCGTAGTA | -0.0499 |
| AATAGCAC | -0.152 |
| GTCATCAA | 0.153 |
| GCCAGGCC | -0.168 |
| AACTCAAC | 0.0643 |
| ATGGGATG | -0.0392 |
| ACCTAAGG | -0.0413 |
| ATTTTCGC | 0.103 |
| CTGGCACA | -0.29 |
| AAGACCGT | -0.216 |
| GTCCAACA | -0.00403 |
| CTTATGGC | 0.0729 |
| TAACTCCA | -0.111 |
| GCGCCTCC | -0.152 |
| CTAGCCGA | -0.0174 |
| CTCGCTGC | -0.0858 |
| AGTCCCGA | -0.202 |

| Sequence | PBM E-score |
| --- | --- |
| CACTTGTC | 0.0322 |
| GGGCTTTA | -0.256 |
| ACGCTGAA | 0.00546 |
| AGCATCAA | 0.149 |
| ACGTCCGG | -0.0967 |
| AGTTAGGC | -0.00545 |
| AACGTCAT | 0.106 |
| ATCACTAC | 0.0148 |
| TGTCTTAA | -0.0348 |
| AGTTCGGA | 0.0572 |
| ATTTGCAA | 0.153 |
| GGAACGCC | -0.118 |
| ACGGCCTG | -0.182 |
| CCACCTGA | 0.0554 |
| AAAATCAA | 0.107 |
| AACACCGC | -0.0233 |
| ACTGCGTG | -0.249 |
| GCAATCTA | 0.0858 |
| GCAGCTCA | -0.015 |
| TGATAACA | 0.199 |
| CAGCGATC | -0.00263 |
| GTCACTCA | 0.142 |
| CAGGCGGA | 0.0778 |
| TAAAGAGA | 0.0262 |
| GACACCAC | -0.124 |

| Sequence | PBM E-score |
| --- | --- |
| AGATAAAT | 0.171 |
| CGTAGTGA | 0.00124 |
| ACGGCAGC | 0.00373 |
| ACATACTC | 0.0818 |
| AATGTAGC | -0.0195 |
| AGGTCGCA | 0.0331 |
| AGGAGGGA | -0.229 |
| GTTTCAAA | 0.00863 |
| CATCGTGG | -0.16 |
| ACCGTGGG | -0.348 |
| TGCAGTAA | 0.00132 |
| GTCCGGAA | 0.0617 |
| ACTAGGCA | -0.0515 |
| CACGCACG | -0.175 |
| ACAGAGAT | 0.137 |
| ATTGGGTG | 0.282 |
| ATTTTGCC | -0.0315 |
| ATATTGCG | 0.176 |
| GTCCTCGA | -0.0336 |
| ACTCATTA | 0.172 |
| ACAGAGCA | 0.112 |
| AATATCTC | 0.113 |
